According to patent US8895035B2, “Alkoxyimino derivative and pest control agent” (Kumiai Chemical Industry Co., Ltd, priority 2010, dated 2014):
Some of these results come from one statement about several compounds together. At least one structure is not confirmed: it was looked up by name or label, or the drawing left a doubt.

What was measured:
[1] = tested on: Aphis gossipii Glover (cotton aphid, melon aphid); assay: Insecticidal action test for Aphis gossipii Glover (seedling immersion); type: in vivo; conditions: 500 ppm active ingredient; cucumber seedlings with hatchlings immersed; 25° C.; after 3 days
Protocol: A wettable powder prepared based on Formulation Example 2 was diluted with water so that the concentration of active ingredient became 500 ppm. In the resulting liquid were immersed cucumber seedlings on which the hatchlings of Aphis gossipii Glover were parasitic, after which the cucumber seedlings were dried in the air. The resulting cucumber seedlings were placed in a thermostat of 25° C. After 3 days, the number of living insects was calculated and the mortality of insect was calculated using the calculation formula of the following Mathematical Expression 1. Insect mortality (%)=[1−(number of living insects)/(number of tested insects)]×100 [Mathematical Expression 1]

[2] = tested on: Nilaparvata lugens Stál (brown rice planthopper); assay: Insecticidal action test for Nilaparvata lugens Stál (immersed sprouting rice); type: in vivo; conditions: 500 ppm active ingredient; sprouting unhulled rice immersed; 3-age larvae; 25° C.; after 6 days

| Structure (SMILES) | insect mortality [1] | insect mortality [2] |
| --- | --- | --- |
| CCCCCON=C(C(N)=O)C(=NOC)n1cncn1 [II-78] | ≥ 90% | ≥ 90% |
| CCC(CC)ON=C(C(N)=O)C(=NOC)n1cncn1 [II-82] | ≥ 90% | ≥ 90% |
| CCCCCCON=C(C(N)=O)C(=NOC)n1cncn1 [II-83] | ≥ 90% | ≥ 90% |
| CON=C(C(=NOC1CCCCC1)C(N)=O)n1cncn1 [II-86] | ≥ 90% | ≥ 90% |
| CON=C(C(=NOCC1CC1)C(N)=O)n1cncn1 [II-87] | ≥ 90% | ≥ 90% |
| CON=C(C(=NOCC1CCC1)C(N)=O)n1cncn1 [II-88] | ≥ 90% | ≥ 90% |
| CON=C(C(=NOCC1CCCC1)C(N)=O)n1cncn1 [II-89] | ≥ 90% | ≥ 90% |
| C#CCON=C(C(N)=O)C(=NOC)n1cncn1 [II-91] | ≥ 90% | ≥ 90% |
| CON=C(C(N)=NOCCC(C)(C)C)n1cncn1 [II-130] | ≥ 90% | ≥ 90% |
| CON=C(C(N)=NOCC1CC1)n1cncn1 [II-133] | ≥ 90% | ≥ 90% |
| CON=C(C(=NOC(C)C)C(N)=NO)n1cncn1 [II-188] | ≥ 90% | ≥ 90% |
| CON=C(C(=NOCC(C)C)C(N)=NO)n1cncn1 [II-190] | ≥ 90% | ≥ 90% |
| CON=C(C(=NOCCC(C)C)C(N)=NO)n1cncn1 [II-194] | ≥ 90% | ≥ 90% |
| CON=C(C(=NOC(C)C)c1nccs1)n1cncn1 [II-214] | ≥ 90% | ≥ 90% |
| CON=C(C(=NOC(C)C)C1=NCCS1)n1cncn1 [II-215] | ≥ 90% | ≥ 90% |
| CON=C(C(=NOC(C)C)C(=N)OC)n1cncn1 [II-223, 2-isopropoxyimino-3-methoxyimino-3-1H-1,2,4-triazol-1-ylpropanecarboxymidic acid methyl ester] | ≥ 90% | ≥ 90% |
| CNC(=O)C(=NOC(C)C)C(=NOC)n1cncn1 [II-225] | ≥ 90% | ≥ 90% |
| CON=C(C(=NOC(C)C)C(=O)N(C)C)n1cncn1 [II-226, 1-(2-isopropoxyimino-2-N,N-dimethylcarbamoyl-1-methoxyiminoethyl)-1H-1,2,4-triazole] | ≥ 90% | ≥ 90% |
| CCCCCCCCON=C(C#N)C(=NOC)n1cncn1 [II-235] | ≥ 90% | ≥ 90% |
| CCCCCCCCCCON=C(C#N)C(=NOC)n1cncn1 [II-236] | ≥ 90% | ≥ 90% |
| CON=C(C(C#N)=NOCC(F)(F)F)n1cncn1 [II-240] | ≥ 90% | ≥ 90% |
| CON=C(C(=NOCC(F)(F)F)C(N)=O)n1cncn1 [II-241] | ≥ 90% | ≥ 90% |
| CON=C(C(C#N)=NOCc1ccccc1)n1cncn1 [II-244] | ≥ 90% | ≥ 90% |
| CON=C(C(C#N)=NOC/C=C/c1ccccc1)n1cncn1 [II-246] | ≥ 90% | ≥ 90% |
| CCC(C)CON=C(C#N)C(=NOC)n1cncn1 (stereo not drawn) [II-266] | ≥ 90% | ≥ 90% |
| CCC(C)CON=C(C(N)=O)C(=NOC)n1cncn1 (stereo not drawn) [II-267] | ≥ 90% | ≥ 90% |
| C=CCCON=C(C#N)C(=NOC)n1cncn1 [II-278] | ≥ 90% | ≥ 90% |

| Structure (SMILES) | insect mortality [1] | insect mortality [2] |
| --- | --- | --- |
| CON=C(C(C#N)=NOC/C=C/Cl)n1cncn1 [II-280] | ≥ 90% | ≥ 90% |
| CON=C(C(=NOC/C=C/Cl)C(N)=O)n1cncn1 [II-281] | ≥ 90% | ≥ 90% |
| CON=C(C(C#N)=NOCC1CCCO1)n1cncn1 (stereo not drawn) [II-284] | ≥ 90% | ≥ 90% |
| CON=C(C(=NOCC1CCCO1)C(N)=O)n1cncn1 (stereo not drawn) [II-285] | ≥ 90% | ≥ 90% |
| CON=C(C(C#N)=NOCC1CCCCC1)n1cncn1 [II-288] | ≥ 90% | ≥ 90% |
| CON=C(C(=NOCC1CCCCC1)C(N)=O)n1cncn1 [II-289] | ≥ 90% | ≥ 90% |
| CON=C(C(=NOCC1CC1(F)F)C(N)=O)n1cncn1 (stereo not drawn) [II-302] | ≥ 90% | ≥ 90% |
| CON=C(C(C#N)=NOC(C)C1CC1)n1cncn1 (stereo not drawn) [II-303] | ≥ 90% | ≥ 90% |
| CON=C(C(=NOC(C)C1CC1)C(N)=O)n1cncn1 (stereo not drawn) [II-304] | ≥ 90% | ≥ 90% |
| CON=C(C(=NOCC1(C)CC1)C(N)=O)n1cncn1 [II-306] | ≥ 90% | ≥ 90% |
| CON=C(C(=NOCC(C)(C)C)C(N)=S)n1cncn1 [II-311] | ≥ 90% | ≥ 90% |
| CCC(C)(C)CON=C(C#N)C(=NOC)n1cncn1 [II-312] | ≥ 90% | ≥ 90% |
| CCC(C)(C)CON=C(C(N)=O)C(=NOC)n1cncn1 [II-313] | ≥ 90% | ≥ 90% |
| C=C(Cl)CON=C(C#N)C(=NOC)n1cncn1 [II-314] | ≥ 90% | ≥ 90% |
| CON=C(C(=NOCC1(Cl)CC1)C(N)=O)n1cncn1 [II-317] | ≥ 90% | ≥ 90% |
| CON=C(C(=NOCC1CC1)C1=NCCS1)n1cncn1 [II-318] | ≥ 90% | ≥ 90% |
| CON=C(C(C#N)=NOCC(C)(C)C#N)n1cncn1 [II-319] | ≥ 90% | ≥ 90% |
| CON=C(C(=NOCC(C)(C)C#N)C(N)=O)n1cncn1 [II-320] | ≥ 90% | ≥ 90% |
| CON=C(C(C#N)=NOCC(C)(C)CCl)n1cncn1 [II-321] | ≥ 90% | ≥ 90% |
| CON=C(C(=NOCC(C)(C)CCl)C(N)=O)n1cncn1 [II-322] | ≥ 90% | ≥ 90% |
| CON=C(C(C#N)=NOCC(F)(F)C(F)(F)C(F)(F)F)n1cncn1 [II-324] | ≥ 90% | ≥ 90% |
| CON=C(C(=NOCC(F)(F)C(F)(F)C(F)(F)F)C(N)=O)n1cncn1 [II-325] | ≥ 90% | ≥ 90% |
| CON=C(C(=NOCC(F)(F)C(F)(F)F)C(N)=O)n1cncn1 [II-327] | ≥ 90% | ≥ 90% |
| CON=C(C(C#N)=NOCCCC(F)(F)F)n1cncn1 [II-328] | ≥ 90% | ≥ 90% |
| CON=C(C(=NOCCCC(F)(F)F)C(N)=O)n1cncn1 [II-329] | ≥ 90% | ≥ 90% |
| CON=C(C(C#N)=NOCCCC(F)(F)C(F)(F)F)n1cncn1 [II-330] | ≥ 90% | ≥ 90% |
| CON=C(C(=NOCCCC(F)(F)C(F)(F)F)C(N)=O)n1cncn1 [II-331] | ≥ 90% | ≥ 90% |
